In this experiment the target is MUL1 (human (endogenous in 786-O)) (UniProt Q969V5). Kind of experiment: co-IP.

Protein sequences, listed by entry. Tags and fused reporters are not part of them.
UniProt Q969V5: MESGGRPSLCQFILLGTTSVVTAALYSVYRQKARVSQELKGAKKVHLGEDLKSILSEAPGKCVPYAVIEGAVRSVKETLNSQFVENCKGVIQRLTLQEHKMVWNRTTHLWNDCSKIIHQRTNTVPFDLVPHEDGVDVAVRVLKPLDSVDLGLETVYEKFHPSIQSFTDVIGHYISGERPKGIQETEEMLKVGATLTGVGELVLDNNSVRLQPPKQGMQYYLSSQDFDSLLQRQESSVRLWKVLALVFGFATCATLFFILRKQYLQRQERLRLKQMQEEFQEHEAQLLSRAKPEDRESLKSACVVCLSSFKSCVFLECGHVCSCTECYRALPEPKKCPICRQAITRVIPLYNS
UniProt Q99814: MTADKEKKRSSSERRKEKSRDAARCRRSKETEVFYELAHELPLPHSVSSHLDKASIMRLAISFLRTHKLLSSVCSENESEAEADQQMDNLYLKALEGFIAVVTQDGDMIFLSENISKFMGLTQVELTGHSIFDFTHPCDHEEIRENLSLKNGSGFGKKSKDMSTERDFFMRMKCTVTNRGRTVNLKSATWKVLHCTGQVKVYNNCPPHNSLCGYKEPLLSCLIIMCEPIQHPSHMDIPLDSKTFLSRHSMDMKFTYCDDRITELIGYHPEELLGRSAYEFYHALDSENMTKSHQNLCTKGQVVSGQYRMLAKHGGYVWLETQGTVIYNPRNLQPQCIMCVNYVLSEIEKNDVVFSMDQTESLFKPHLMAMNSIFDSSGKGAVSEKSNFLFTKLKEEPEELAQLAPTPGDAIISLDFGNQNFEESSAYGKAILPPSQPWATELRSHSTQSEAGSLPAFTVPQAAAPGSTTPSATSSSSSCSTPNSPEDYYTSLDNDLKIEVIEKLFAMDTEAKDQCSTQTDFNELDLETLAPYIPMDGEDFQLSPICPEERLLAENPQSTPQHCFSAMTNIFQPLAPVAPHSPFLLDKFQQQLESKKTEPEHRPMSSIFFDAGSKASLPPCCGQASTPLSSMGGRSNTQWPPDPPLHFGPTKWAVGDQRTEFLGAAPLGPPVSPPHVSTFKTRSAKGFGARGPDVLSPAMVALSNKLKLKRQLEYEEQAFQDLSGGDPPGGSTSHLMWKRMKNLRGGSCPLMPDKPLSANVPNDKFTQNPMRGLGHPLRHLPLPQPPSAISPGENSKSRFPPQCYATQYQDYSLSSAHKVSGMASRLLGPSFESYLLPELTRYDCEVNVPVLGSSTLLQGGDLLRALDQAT

Results are given in words; binding and its absence hold for the method and conditions named. Binding seen in cells or lysates may run through a third protein. Some binding calls cover weakened binding; strength is not graded here.

Turning to HIF-2α (from UniProt Q99814 1-870), the binding entry is on record as “binds”.

(Values after paper doi:10.1101/2022.04.21.489116.)
